Measurements as given in ChEMBL document CHEMBL1828497, “Novel indole and azaindole (pyrrolopyridine) cannabinoid (CB) receptor agonists: design, synthesis, structure-activity relationships, physicochemical properties and biological activity” (Eur J Med Chem, 2011).
Values after ≈ are worked out from the molar mass of the structure shown.

Experiments:
[1] = Lipophilicity, log D of the compound at pH 7.4; settings: buffer
[2] = physchem; settings: buffer, pH 7.4
[3] = physchem; settings: buffer, pH 7.4; remark: listed apart in the source
[4] = physchem; settings: buffer, pH 7.4; remark: listed apart in the source
[5] = physchem; settings: buffer, pH 4

Compound: CCCCCn1cc(C(=O)c2cccc3ccccc23)c2cnccc21
- logD [1]: 4.44
- solubility thermodynamic at 24 h [2]: 5 µM (≈ 1.71 µg/mL)
- solubility kinetic [3]: 30 µM (≈ 10.3 µg/mL)
- solubility kinetic [4]: 10 µM (≈ 3.42 µg/mL)
- solubility thermodynamic at 24 h [5]: 133 µM (≈ 45.5 µg/mL)
